Results: publication PMC3517461
These are yes or no findings as the source states them, for the method shown. In cells and extracts the contact can be indirect. Tags and fused reporters may be left off the sequences shown.

Sequences of proteins named here, by UniProt entry; tags and fusion partners are left off. Residues count along the entry.
UniProt O75460, residues 19-977: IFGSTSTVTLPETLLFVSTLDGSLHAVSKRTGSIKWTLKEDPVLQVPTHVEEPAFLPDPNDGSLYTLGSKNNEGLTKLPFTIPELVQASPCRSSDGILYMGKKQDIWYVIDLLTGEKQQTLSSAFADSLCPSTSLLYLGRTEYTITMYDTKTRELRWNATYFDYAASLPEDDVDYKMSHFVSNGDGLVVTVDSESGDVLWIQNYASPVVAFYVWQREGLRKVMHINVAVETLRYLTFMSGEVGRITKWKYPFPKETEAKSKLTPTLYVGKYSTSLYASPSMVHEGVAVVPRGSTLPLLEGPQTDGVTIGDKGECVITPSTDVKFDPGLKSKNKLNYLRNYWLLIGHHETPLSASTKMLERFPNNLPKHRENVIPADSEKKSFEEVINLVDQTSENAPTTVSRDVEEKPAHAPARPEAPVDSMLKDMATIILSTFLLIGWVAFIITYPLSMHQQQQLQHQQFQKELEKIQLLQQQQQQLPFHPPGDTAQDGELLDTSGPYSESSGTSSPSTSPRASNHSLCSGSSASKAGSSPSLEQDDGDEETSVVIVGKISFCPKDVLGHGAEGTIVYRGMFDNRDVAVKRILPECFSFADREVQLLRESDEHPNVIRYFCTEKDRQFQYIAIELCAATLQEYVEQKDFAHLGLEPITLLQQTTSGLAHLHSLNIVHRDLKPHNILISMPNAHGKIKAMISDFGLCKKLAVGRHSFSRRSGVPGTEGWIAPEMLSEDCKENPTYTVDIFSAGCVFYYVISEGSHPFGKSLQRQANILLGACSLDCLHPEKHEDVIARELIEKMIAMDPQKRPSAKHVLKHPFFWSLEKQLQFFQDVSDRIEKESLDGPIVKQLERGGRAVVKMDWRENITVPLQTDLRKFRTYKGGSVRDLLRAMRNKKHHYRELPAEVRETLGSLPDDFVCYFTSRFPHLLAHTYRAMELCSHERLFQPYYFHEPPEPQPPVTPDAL

Target: human IRE1α, 3x HA-tagged (pCAG-hIRE1α-HA), wild type (human) (UniProt O75460)
Assay: co-IP; HEK293T cells co-transfected with Flag-tagged model protein and HA-tagged IRE1; lysis in TNE buffer (10 mM Tris-HCl pH 7.5, 1% NP-40, 150 mM NaCl, 1 mM EDTA); anti-HA (12CA5) immunoprecipitation on protein G Sepharose; anti-Flag Western blot

binding: no binding
B1: mouse Amy1, 3x Flag-tagged (pCAX-mAmy1-Flag) (protein, UniProt P00687 16-511)
chain: QYDPHTQYGRTAIVHLFEWRWVDIAKECERYLAPNGFAGVQVSPPNENIVVHSPSRPWWERYQPISYKICSRSGNEDEFRDMVNRCNNVGVRIYVDAVINHMCGVGAQAGQSSTCGSYFNPNNRDFPGVPYSGFDFNDGKCRTASGGIENYQDAAQVRDCRLSGLLDLALEKDYVRTKVADYMNHLIDIGVAGFRLDASKHMWPGDIKAILDKLHNLNTKWFSQGSRPFIFQEVIDLGGEAVSSNEYFGNGRVTEFKYGAKLGKVMRKWDGEKMSYLKNWGEGWGLMPSDRALVFVDNHDNQRGHGAGGASILTFWDARLYKMAVGFMLAHPYGFTRVMSSYYWPRNFQNGKDVNDWVGPPNNNGKTKEVSINPDSTCGNDWICEHRWRQIRNMVAFRNVVNGQPFANWWDNDSNQVAFGRGNKGFIVFNNDDWALSETLQTGLPAGTYCDVISGDKVDGNCTGIKVYVGNDGKAHFSISNSAEDPFIAIHAESKI
